Data as given in article doi:10.1101/413997.
These are yes or no findings as the source states them, for the method shown. Binding can be weak; no strength is given. Tags and fused reporters may be left off the sequences shown. For some assays here: Binding seen in cells or lysates may run through a third protein.

Key:
[1] = target: T1, EB1, yeast two-hybrid fusion (UniProt Q9XZ57); experiment: two-hybrid
T1 sequence: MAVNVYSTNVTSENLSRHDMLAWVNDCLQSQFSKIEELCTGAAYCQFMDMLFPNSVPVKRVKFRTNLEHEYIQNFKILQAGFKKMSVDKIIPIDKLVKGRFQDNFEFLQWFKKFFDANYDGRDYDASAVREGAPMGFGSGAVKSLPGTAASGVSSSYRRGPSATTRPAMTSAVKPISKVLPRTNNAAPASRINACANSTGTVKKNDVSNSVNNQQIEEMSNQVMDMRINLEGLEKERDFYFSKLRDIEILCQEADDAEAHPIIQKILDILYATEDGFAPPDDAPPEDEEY

GFP::EB1 = target: T2, GFP::EB1 (UniProt Q9XZ57); experiment: co-IP
T2 sequence: T1 sequence

| binding [1] | binding (GFP::EB1) | Substance |
| --- | --- | --- |
| binds | – | FIP^439-657, yeast two-hybrid fusion (Drosophila melanogaster) (domain or fragment) |
| – | binds | Flag::FIP (Drosophila melanogaster) |
